Two sequences from patent US20180320175 can be followed below.

Chains of the proteins cited; added tags and fusions are not shown.
UniProt O95931, whole entry: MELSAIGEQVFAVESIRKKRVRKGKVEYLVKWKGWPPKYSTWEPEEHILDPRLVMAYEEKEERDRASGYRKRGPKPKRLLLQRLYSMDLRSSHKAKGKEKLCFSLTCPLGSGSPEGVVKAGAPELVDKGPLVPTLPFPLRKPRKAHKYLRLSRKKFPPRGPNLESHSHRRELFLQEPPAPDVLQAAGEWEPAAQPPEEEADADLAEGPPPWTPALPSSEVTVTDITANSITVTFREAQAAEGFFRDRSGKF

The target of the data set is CBX7 (Chromobox Homolog 7, PRC1 subunit) (UniProt O95931). As to the kind of experiment: binding assay. Particulars: denaturing CLIP-seq in HEK293; UV 254 nm; 8 M urea wash; region is peak plus 500 nt envelope; protein in cells.

For at least one entry, the source does not settle the construct or the ends of the probe. At least one result comes from cells or an extract, where the contact may be indirect.

As for “AGCACUGCUUGCCCCUCCUCUCGUCUGGUCUGGUCUGGUCUGGUCUGGUCUGGUCUGAGAGCUUCUUUGGGGCUCUGACAGGUAUACAGGCUCUCAUCUGCUCUACAGCUCUCUUGUAGUACAUUCCUCUCUGUUCCAUUAGUCAACAUGUUCUUGCCUACUUCCAGCAUCUAGAAAUUUGCUGAGUGUAUCUUAUCCGUUCAGAGGUCCUCUCCUGCUAUUGCCUCUGUUAGAAAUUUCUUCCCUUUCAUAUGUCUGUACUUCGGUUUCUUUGAGGUUUGAAGGGUCAAGUGGCAAUUACAUGUAGGCAGUUGGCCAUCCUCUGGUGAAGGCUUUAAAGCCCAGGAAUAACAAGAUCCAUUAUGUCUAAAACUAGCAAAAACCCUACCUGUCACAUGGUGAACUGAAUUAGAGGUGAUGGGGACAGAAGCCAGAUUGGAGUGAGUGGAAGGUGAGGGAGUGGAGAUUGGGUAUAGACAACUCUCUUUAAGAAGUUUUGUUGUGAUGGUGACCAGAAAAAUAGGAGUGGGGUAGAGGGGGAUGAGGGUGUUUUUCACGUGGGUGAAUAUGAGAGCAUGUUUACAUCCUUCUGGGAAUGGCCCAGGAGAGAGGGGAGCGUGAGAAGGAGGAAAUGGGGACCUGGAGGAGCAGACUCCUUGUGUGGAGGGGGGAAGCGGCAUCUAGAGCUGUUGCAGGAGGUGGGCUUUGAGUAAAUGCUUCCUCUUUGGUAAAGACGGGGAACGGGAACGGUAGAAGUUGCACGGACCCUUUGUUAAAGCUCAGAAGCUGAGCGAGAAUUAGAGCUUAAGUUUAUGGAGUAGUCAGAAUAAAGUACCCCUAACUGUAUUCUUGCACAGUGCAGGAAGCCAGGGGUCUGAAAUCAAGAUGUUGCAGGGCUCCAUUCCCCCCAGAGCCUCUAGCAUGGAUCCUUCCUUGCCUCUUCCAGCUUUUGGUGGCUGCCUGGCAGUCCUAGACUUUCCUUGGCUUGCAGUUGCAUUGCUCCAUUCUCUGCUUGUGUCUUCACAUGGCCUUCUCUGUGUCCCCGUAUUCUUCUCUGGAUGCUUGUCACUGUAUUAGGCCCACCCUAAAUCCAGGAUGAUCUCAUAUCAAGAUCCUUCACUUAAUUACAGAA [MECP2 RNA PRC1-binding region 2]”, the binding result is reported as “binds”. Under “AGGGAGCAGCCCCAAAUUGUCACCUGCUUCUCUGCCCAGCUUUUCAUUGCUGUGACAGUGAUGGCGAAAGAGGGUAAUAACCAGACACAAACUGCCAAGUUGGGUGGAGAAAGGAGUUUCUUUAGCUGACAGAAUCUCUGAAUUUUAAAUCACUUAGUAAGCGGCUCAAGCCCAGGAGGGAGCAGAGGGAUACGAGCGGAGUCCCCUGCGCGGGACCAUCUGGAAUUGGUUUAGCCCAAGUGGAGCCUGACAGCCAGAACUCUGUGUCCCCCGUCUAACCACAGCUCCUUUUCCAGAGCAUUCCAGUCAGGCUCUCUGGGCUGACUGGGCCAGGGGAGGUUACAGGUACCAGUUCUUUAAGAAGAUCUUUGGGCAUAUACAUUUUUAGCCUGUGUCAUUGCCCCAAAUGGAUUCCUGUUUCAAGUUCACACCUGCAGAUUCUAGGACCUGUGUCCUAGACUUCAGGGAGUCAGCUGUUUCUAGAGUUCCUACCAUGGAGUGGGUCUGGAGGACCUGCCCGGUGGGGGGGCAGAGCCCUGCUCCCUCCGGGUCUUCCUACUCUUCUCUCUGCUCUGACGGGAUUUGUUGAUUCUCUCCAUUUUGGUGUCUUUCUCUUUUAGAUAUUGUAUCAAUCUUUAGAAAAGGCAUAGUCUACUUGUUAUAAAUCGUUAGGAUACUGCCUCCCCCAGGGUCUAAAAUUACAUAUUAGAGGGGAAAAGCUGAACACUGAAGUCAGUUCUCAACAAUUUAGAAGGAAAACCUAGAAAACAUUUGGCAGAAAAUUACAUUUCGAUGUUUUUGAAUGAAUACGAGCAAGCUUUUACAACAGUGCUGAUCUAAAAAUACUUAGCACUUGGCCUGAGAUGCCUGGUGAGCAUUACAGGCAAGGGGAAUCUGGAGGUAGCCGACCUGAGGACAUGGCUUCUGAACCUGUCUUUUGGGAGUGGUAUGGAAGGUGGAGCGUUCACCAGUGACCUGGAAGGCCCAGCACCACCCUCCUUCCCACUCUUCUCAUCUUGACAGAGCCUGCCCCAGCGCUGACGUGUCAGGAAAACACCCAGGGAACUAGGAAGGCACUUCUGCCUGAGGGGCAGCCUGCCUUGCCCACUCCUGCUCUGCUCGCCUCGGAUCAGCUGAGCCUUCUGAGCUGGCCUCUCACU [MECP2 RNA PRC1-binding region 1]” stands “binds”.
